Reference: PubChem BioAssay AID901 (National Center for Advancing Translational Sciences (NCATS), 2007)
The list shows a part of the results. The main result of the screen is listed elsewhere. These columns were measured beside it and carry no call. Most of these compounds were active or inconclusive in the main read-out, so they are no random draw. Words in brackets tell the shape of the fitted curve; partial curves, single points and poor fits give uncertain potencies.

Test: qHTS Assay for Identifying the Cell-Membrane Permeable IMPase Inhibitors
Settings: CHO-M1 cells, IP1 accumulation, HTRF TR-FRET ratio; measured here: donor channel 620 nm AC50
Description: NCGC IMPase Assay Overview
Lithium has been widely used for the treatment of bipolar disorder. But lithium has a narrow therapeutic index and it can cause side effects such as thirst, weight gain, tremor, polyuria and memory problems. Although the mechanism for lithium action in treatment of bipolar disorder is still not fully understood, inhibition of inositol monophosphatase (IMPase) and the subsequent depletion of the inositol pool in living cells have been implicated as the primary therapeutic benefit of lithium therapy. Therefore, a selective IMPase inhibitor with reduced side effects might be a good drug candidate to replace lithium for the treatment of bipolar disorder. Several IMPase inhibitors have been discovered previously. However, they are not suitable for therapeutic use because of their poor cell membrane penetrability or oral bioavailability; the development of new cell-permeable IMPase inhibitors is needed.
IMPase catalyzes the hydrolysis of inositol-1-phosphate (IP1) to release free inositol. Binding of an agonist to a Gq coupled GPCR results in the activation of PLC, which hydrolyzes the PIP2 to form inositol-1,4,5-trisphosphate (IP3) and diacyl glycerol (DAG). While DAG activates protein kinase C (PKC), IP3 triggers the elevation of intracellular free Ca2+. The IP3 is very rapidly inactivated by hydrolysis to IP2, IP1 and then inositol by a series of enzymes including IMPase. Free inositols are used for synthesis of PI and thus start another inositol cycle.
To identify new cell-permeable IMPase inhibitors, we developed a cell-based IMPase assay in which the cytosolic IP1 is measured by a time-resolved fluorescence resonance energy transfer (TR-FRET) assay. In this assay, an IP1 specific antibody is used to detect the labeled IP1 tracer. When the cell lysate contains the elevated IP1 due to the inhibition of IMPase, the TR-FRET between the labeled antibody and IP1 tracer is disrupted resulting in a reduction in the total signal. Since the TR-FRET is used, this cell-based assay is a homogenous assay without cell wash and medium change that is suitable for assay miniaturization and HTS.
NCGC IMPase Assay Protocol Summary
A Chinese hamster ovary (CHO) cell line stably expressing the M1 receptor (CHO-M1) was obtained from ATCC and maintained in F-12 Kaighn's media (Invitrogen, Carlsbad, CA, 21127) supplemented with 10 % FBS, 100 units/ml penicillin, 100 ug/ml streptomycin and 250 ug/ml geneticin at 37C, 5% CO2 in a humidified atmosphere. Before the assay, aliquots of cells were frozen and stored at -135C. The assay was performed in 1536-well format. Data are reported for both the ratio of the two emission wavelengths, and also for the component 'donor' channel, Em2=620. […] AC50 values were determined from concentration-response data modeled with the standard Hill equation.
IMPase 1536-well assay protocol:
(1) Plate 4 ul/well (2000 cells) of cell suspension from frozen CHO-M1 Cells in white, tissue culture treated 1536-well plates that are cultured at 37C, 5 % CO2 for 16 to 30 hours.
(2) Add 23 nl/well of compound in DMSO solution. The final titration for each compound was between 0.6 nM and 46 uM.
(3) Add 1 ul of carbachol (50 uM in stimulation buffer containing10mM HEPES, 1mM CaCl2, 0.5 mM MgCl2, 4.2 mM KCl, 146 mM NaCl, 5.5 mM glucose, 50mM LiCl, pH 7.4.
(4) Incubation at 37C, 5 % CO2 for 30 min.
(5) Add 1 ul/well of d2-conjugated IP1 (d2-IP1) and 1 ul/well of Eu+ cryptate conjugated anti-IP1 antibody (Eu+-Ab) prepared in the cell lysis buffer, both from the IP-One kit (Cisbio, MA).
(6) Incubate at room temperature for 10 minutes.
(7) Detect the assay plate (Ex = 320, Em1 =665 and Em2 620) in a ViewLux plate reader.
inositol monophosphatase, IMPase, IMPase inhibitor, lithium, bipolar disorder, IP-One, HTRF, qHTS, NIH roadmap, NCGC
Note: In the gene ID and protein GI references for this assay, rat IMPase is referenced instead of hampster as hamster accession numbers were not available.

| SMILES | AC50 |
| --- | --- |
| O=C(Cn1c(=O)n(CC2CCCO2)c(=O)c2ccccc21)N1CCN(c2ccccc2)CC1 (stereo not drawn) | 35.5 µM [falling, partial curve, poor fit] |
| CCCCOc1ccc(C(=O)CCN2CCCCC2)cc1 | 0.00126 µM [falling, full curve, poor fit] |
| O=C(CSc1nnc(-c2cccs2)n1-c1ccccc1)Nc1ccccc1 | 31.6 µM [rising, single point] |
| CN(C)/C=N/c1c(C#N)cnn1-c1nc2ccccc2s1 | 0.2 µM [rising, partial curve] |
| CCc1ccccc1NC(=O)N[C@@H](C)C(=O)O | 4.47 µM [rising, single point] |
| O=C(c1cncc(Br)c1)N1CCCc2ccccc21 | 28.2 µM [falling, single point] |
| CC(=O)Nc1cc2c(cc1C(=O)C(C)C)OCCO2 | 0.251 µM [falling, full curve] |
| CCOc1ccc(NCC2CCOC(C)(C)C2)cc1 (stereo not drawn) | 12.6 µM [falling, single point] |
| C=CCn1c(COc2ccccc2-c2ccccc2)nnc1SCC(=O)NC(=O)NCc1ccco1 | 12.6 µM [falling, partial curve, poor fit] |
| Cc1ccc(NC(=O)C2CCCN(S(=O)(=O)c3c(C)noc3C)C2)c(C)c1 (stereo not drawn) | 6.31 µM [rising, partial curve, poor fit] |
| c1nc(NC2CCCCCC2)c2[nH]cnc2n1 | 0.0355 µM [rising, full curve] |
| COc1ccc(-c2nnc(NC(=O)C(C)C)s2)c(OC)c1 | 31.6 µM [rising, single point] |
| CCOC(=O)c1nc(N2CCN(C(=O)OCC)CC2)c2c3c(sc2n1)CCCC3 | 1 µM [falling, partial curve] |
| CN(Cc1ccccc1)S(=O)(=O)c1ccc2c(c1)OCCO2 | 3.98 µM [rising, single point] |
| CCOC(=O)N1CCC(n2c(SCC(=O)OCc3ccccc3)nc3ccsc3c2=O)CC1 | 0.01 µM [rising, full curve, poor fit] |
| Cc1ccccc1CN1C(=O)C2(OCCCO2)c2ccccc21 | 1.58 µM [rising, full curve, poor fit] |
| N#Cc1c2c(c(NCCN3CCOCC3)n3c1nc1ccccc13)CCCC2 | 1.26 µM [falling, partial curve, poor fit] |
| CCN(Cc1ccccc1)C(=O)c1ccccc1C | 5.62 µM [rising, single point] |
| O=C(O)COc1ccc(-c2nnn(CC(=O)O)n2)cc1 | 3.16 µM [falling, single point] |
| COc1ccccc1NC(=O)Cc1noc(CN(C)Cc2cccs2)n1 | 3.16 µM [falling, partial curve] |
| CCn1c(SCC(=O)N2CCc3ccccc3C2)nc2sc(C)c(C)c2c1=O | 35.5 µM [rising, single point] |
| CCS(=O)(=O)N1CCCC(C(=O)NC2CCCC2)C1 (stereo not drawn) | 6.31 µM [rising, single point] |
| COc1ccccc1C1C=C(c2ccccc2)Nc2nnnn21 (stereo not drawn) | 31.6 µM [falling, single point] |

Quoted from the listing:
AC50 with c1nc(NC2CCCCCC2)c2[nH]cnc2n1 reads 0.0355 µM [rising, full curve]
AC50 with CCCCOc1ccc(C(=O)CCN2CCCCC2)cc1 reads 0.00126 µM [falling, full curve, poor fit]

More records:

| SMILES | AC50 |
| --- | --- |
| Cc1ccc(C)c(NC(=O)CN2C(=O)CNC2=O)c1 | 0.02 µM [falling, full curve, poor fit] |
| COc1cccc(N2CCN(C(=O)c3[nH]c(C)c(C(C)=O)c3C)CC2)c1 | 6.31 µM [falling, single point] |
| CCOc1ccc(-n2c(SCC(=O)NC(C)CC)nc3n[nH]c(C)c3c2=N)cc1 (stereo not drawn) | 25.1 µM [rising, single point] |
| O=C(CSc1nnnn1-c1ccccc1Cl)Nc1ccc2c(c1)OCCO2 | 3.16 µM [falling, partial curve] |
| O=C(CN1CCN(C(=O)c2ccco2)CC1)Nc1ccc2c(c1)OCCO2 | 0.251 µM [rising, full curve, poor fit] |
| CCOC(=O)c1ccc(CNC(=O)C2CCCCC2C(=O)OCC(F)(F)F)o1 (stereo not drawn) | 5.01 µM [falling, single point] |
| O=C(c1cc(-c2ccc3c(c2)OCO3)on1)N1CCN(c2ccccc2)CC1 | 0.316 µM [falling, full curve] |
| Cc1cccc(OCc2nnc(SCC(=O)N3CCN(c4ccccc4)CC3)o2)c1C | 0.316 µM [falling, full curve] |
| Cc1ccc(C(=O)c2oc3ccccc3c2NC(=O)COc2ccccc2Cl)cc1 | 31.6 µM [rising, single point] |
| CCCc1cc(C(=O)Nc2cccc(Cl)c2)no1 | 0.891 µM [falling, full curve] |
| CC(=O)NCCn1c(SCC(=O)c2ccccc2)nc2ccccc2c1=O | 0.0126 µM [rising, full curve, poor fit] |
| CCN1C(=O)c2cccc3c(N)ccc1c23 | 10 µM [falling, single point] |
| O=C(NCc1ccco1)C(Cc1ccccc1)N1C(=O)c2ccccc2C1=O (stereo not drawn) | 1.26 µM [falling, full curve, poor fit] |
| COC(=O)C(C)Oc1ccc(=O)[nH]n1 (stereo not drawn) | 5.01 µM [falling, single point] |
| COc1ccc(N2C(=O)CC(Cc3ccccc3)C2=O)cc1 (stereo not drawn) | 6.31 µM [falling, single point] |
| Cc1nc2c(n1C1CCCCC1)C(=O)c1ccccc1C2=O | 10 µM [rising, single point] |
| COC(=O)CSc1nnc(CNC(=O)c2ccco2)n1-c1ccc(F)cc1 | 3.16 µM [rising, full curve] |
| CCN(CC)C(=O)N1CCN(C(=O)c2ccc(C)cn2)CC1 | 5.01 µM [falling, single point] |
| COc1ccc(OC)c(Nc2nc(-c3sc(NC(=O)c4ccccc4)nc3C)cs2)c1 | 6.31 µM [rising, single point] |
| CCOC(=O)c1cc(OC(=O)c2ccc(OC)c(OC)c2)n(-c2ccccc2)n1 | 6.31 µM [falling, single point] |
| COc1ccc(-c2cc(C(F)(F)F)n3nc(C(=O)N4CCCCC4)cc3n2)cc1OC | 0.00501 µM [rising, full curve, poor fit] |
| CCOC(=O)Cc1nnc(NC(=O)CSc2nnc3c4ccccc4n(C(C)C)c3n2)s1 | 2 µM [rising, full curve] |
| CCOC(=O)c1[nH]c2cc(OC)c(OC)cc2c1N | 12.6 µM [falling, single point] |

Three compounds picked at random from the list so far, as already listed:

| SMILES | AC50 |
| --- | --- |
| CCOc1ccc(-n2c(SCC(=O)NC(C)CC)nc3n[nH]c(C)c3c2=N)cc1 (stereo not drawn) | 25.1 µM [rising, single point] |
| COc1ccccc1NC(=O)Cc1noc(CN(C)Cc2cccs2)n1 | 3.16 µM [falling, partial curve] |
| CN(C)/C=N/c1c(C#N)cnn1-c1nc2ccccc2s1 | 0.2 µM [rising, partial curve] |

Next entries follow:

| SMILES | AC50 |
| --- | --- |
| CCOC(=O)C1=C(N)OC2=C(C(=O)CCC2)C1c1ccccc1OCC (stereo not drawn) | 3.98 µM [rising, full curve, poor fit] |
| Cc1nnc(NC(=O)CCCCCN2C(=O)C3C4C=CC(C4)C3C2=O)s1 (stereo not drawn) | 0.224 µM [falling, full curve, poor fit] |
| O=C(Cn1cnc2c(nnn2Cc2ccc(F)cc2)c1=O)N1CCCc2ccccc21 | 3.16 µM [rising, single point] |
| COC(=O)Sc1nnc(-c2ccc(Br)cc2)o1 | 20 µM [rising, single point] |
| N#C/C(=C\c1c(Oc2ccc(Br)cc2)nc2ccccn2c1=O)c1nc2ccccc2s1 | 2.51 µM [falling, partial curve] |
| Cc1ccc(N2C(=O)c3ccc(C(=O)N4CCOCC4)cc3C2=O)cc1C | 12.6 µM [falling, partial curve] |
| Oc1ccc(NCc2ccc(OCc3ccccc3Cl)cc2)cc1 | 6.31 µM [falling, single point] |
| Cn1c(SCC(=O)Nc2ccc3nc(SCC(=O)N4CCCC4)sc3c2)nnc1-c1ccccc1 | 0.00398 µM [falling, full curve, poor fit] |
| CCn1c(SCC(=O)Nc2nccs2)nnc1-c1ccc(S(=O)(=O)N2CCCCCC2)cc1 | 5.01 µM [rising, single point] |
| CC(C(=O)NCc1cccnc1)N1C(=O)c2ccccc2C1=O (stereo not drawn) | 1.26 µM [falling, full curve] |
| Cc1nc(C(C)(C)O)n(-c2ccccc2)n1 | 0.00501 µM [falling, full curve, poor fit] |
| CCCCN(CC)C(=O)Cc1ccccc1OC | 7.94 µM [falling, partial curve, poor fit] |
| CCCC1(C(=O)OCC)NC(c2ccc(OC)cc2OC)C2C(=O)N(c3ccccc3)C(=O)C21 (stereo not drawn) | 0.02 µM [rising, full curve, poor fit] |
| N/C(=N\OC(=O)Cc1ccc(-c2ccccc2)cc1)c1ccccn1 | 25.1 µM [falling, single point] |
| COc1ccc(NC(=O)Nc2ccccc2C)c(OC)c1 | 3.16 µM [falling, single point] |
| CCOc1ccccc1NC(=O)CSC1=Nc2ccccc2C2=NC(CC(=O)NC3CCCCC3)C(=O)N12 (stereo not drawn) | 0.0224 µM [falling, full curve, poor fit] |
| CC(=O)NCCn1c(SCC(=O)NCCC(C)C)nc2ccccc2c1=O | 1.26 µM [rising, partial curve, poor fit] |
| NC(=O)c1ccccc1NC(=O)Nc1cccc(Cl)c1 | 31.6 µM [rising, single point] |
| O=C(CCS(=O)(=O)Cc1ccccc1)NCC1CCCO1 (stereo not drawn) | 3.16 µM [rising, single point] |
| CC(Cc1cccs1)NC(=O)Nc1ccccc1 (stereo not drawn) | 15.8 µM [rising, single point] |
| O=C(Nc1nccs1)c1ccc2nccnc2c1 | 0.794 µM [falling, full curve, poor fit] |
| COc1ccc(Oc2c(C=O)c3ccccc3n2C)cc1 | 15.8 µM [falling, single point] |
